## Percent effect of library compounds

Amino acid sequences for entries named in this document (tags omitted). Residues count along the entry.
UniProt P9WPC5, whole entry: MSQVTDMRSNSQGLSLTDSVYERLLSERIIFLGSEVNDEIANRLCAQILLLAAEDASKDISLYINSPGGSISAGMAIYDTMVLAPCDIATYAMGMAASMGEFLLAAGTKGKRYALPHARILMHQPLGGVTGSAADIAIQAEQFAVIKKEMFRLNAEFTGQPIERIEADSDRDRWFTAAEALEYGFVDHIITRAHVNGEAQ
UniProt P9WPC3, whole entry partner: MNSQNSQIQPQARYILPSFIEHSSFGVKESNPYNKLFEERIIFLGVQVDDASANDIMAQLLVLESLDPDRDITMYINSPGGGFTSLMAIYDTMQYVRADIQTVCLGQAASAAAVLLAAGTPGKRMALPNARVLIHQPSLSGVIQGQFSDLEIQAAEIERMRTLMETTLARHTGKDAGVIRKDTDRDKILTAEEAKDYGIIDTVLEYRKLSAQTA
UniProt P9WFT3, whole entry: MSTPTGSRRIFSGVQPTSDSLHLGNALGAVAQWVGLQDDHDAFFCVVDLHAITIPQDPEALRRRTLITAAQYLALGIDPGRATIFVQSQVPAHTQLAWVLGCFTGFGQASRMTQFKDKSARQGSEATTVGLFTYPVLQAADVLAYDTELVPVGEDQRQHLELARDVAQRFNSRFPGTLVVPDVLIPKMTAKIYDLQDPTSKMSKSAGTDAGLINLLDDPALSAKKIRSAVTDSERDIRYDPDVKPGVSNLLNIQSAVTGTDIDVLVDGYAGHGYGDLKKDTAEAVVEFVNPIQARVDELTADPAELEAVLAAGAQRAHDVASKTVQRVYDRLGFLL
UniProt I6X8D2, whole entry: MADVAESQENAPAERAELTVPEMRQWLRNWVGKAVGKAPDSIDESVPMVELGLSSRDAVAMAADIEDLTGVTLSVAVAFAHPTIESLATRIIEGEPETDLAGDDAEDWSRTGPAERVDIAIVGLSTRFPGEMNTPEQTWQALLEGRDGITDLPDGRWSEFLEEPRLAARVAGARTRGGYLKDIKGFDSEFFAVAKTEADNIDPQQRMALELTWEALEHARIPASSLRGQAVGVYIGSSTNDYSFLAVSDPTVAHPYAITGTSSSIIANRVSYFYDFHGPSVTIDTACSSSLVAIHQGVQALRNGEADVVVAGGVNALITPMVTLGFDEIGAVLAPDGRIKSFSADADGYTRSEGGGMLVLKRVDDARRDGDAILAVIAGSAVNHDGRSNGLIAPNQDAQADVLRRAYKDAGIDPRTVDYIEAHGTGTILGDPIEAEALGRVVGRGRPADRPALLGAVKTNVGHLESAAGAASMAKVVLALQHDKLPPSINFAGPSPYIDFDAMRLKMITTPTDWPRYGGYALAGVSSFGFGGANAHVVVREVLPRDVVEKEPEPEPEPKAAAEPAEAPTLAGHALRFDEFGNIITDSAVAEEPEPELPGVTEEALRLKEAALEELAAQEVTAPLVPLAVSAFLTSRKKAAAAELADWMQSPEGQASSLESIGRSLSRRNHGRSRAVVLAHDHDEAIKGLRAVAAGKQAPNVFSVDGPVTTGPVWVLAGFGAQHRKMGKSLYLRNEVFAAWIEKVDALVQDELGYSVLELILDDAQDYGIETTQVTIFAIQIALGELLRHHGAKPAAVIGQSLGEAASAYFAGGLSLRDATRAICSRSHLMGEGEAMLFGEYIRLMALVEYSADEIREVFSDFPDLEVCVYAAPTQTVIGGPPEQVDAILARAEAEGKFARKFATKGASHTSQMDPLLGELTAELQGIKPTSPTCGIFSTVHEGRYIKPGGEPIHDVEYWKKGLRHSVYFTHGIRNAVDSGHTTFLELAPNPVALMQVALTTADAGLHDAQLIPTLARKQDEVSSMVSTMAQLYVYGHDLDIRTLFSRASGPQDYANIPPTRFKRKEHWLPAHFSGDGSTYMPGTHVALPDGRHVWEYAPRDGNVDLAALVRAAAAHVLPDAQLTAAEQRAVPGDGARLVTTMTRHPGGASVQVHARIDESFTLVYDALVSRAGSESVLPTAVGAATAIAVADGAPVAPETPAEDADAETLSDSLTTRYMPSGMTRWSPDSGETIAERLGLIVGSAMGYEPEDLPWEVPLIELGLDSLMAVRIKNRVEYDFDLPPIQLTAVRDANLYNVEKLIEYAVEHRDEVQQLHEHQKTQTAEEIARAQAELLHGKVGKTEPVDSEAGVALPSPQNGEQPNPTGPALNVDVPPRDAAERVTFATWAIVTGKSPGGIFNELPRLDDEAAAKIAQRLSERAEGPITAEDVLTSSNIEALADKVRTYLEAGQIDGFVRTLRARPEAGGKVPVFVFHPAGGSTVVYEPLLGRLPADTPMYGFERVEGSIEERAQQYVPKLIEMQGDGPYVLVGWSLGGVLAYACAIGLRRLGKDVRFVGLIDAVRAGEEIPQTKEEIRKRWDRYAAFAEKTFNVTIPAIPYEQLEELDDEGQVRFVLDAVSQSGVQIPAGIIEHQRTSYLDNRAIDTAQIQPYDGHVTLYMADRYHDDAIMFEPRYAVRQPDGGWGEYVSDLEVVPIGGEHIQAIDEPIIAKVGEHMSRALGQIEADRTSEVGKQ
UniProt Q8IDJ8, 1-583: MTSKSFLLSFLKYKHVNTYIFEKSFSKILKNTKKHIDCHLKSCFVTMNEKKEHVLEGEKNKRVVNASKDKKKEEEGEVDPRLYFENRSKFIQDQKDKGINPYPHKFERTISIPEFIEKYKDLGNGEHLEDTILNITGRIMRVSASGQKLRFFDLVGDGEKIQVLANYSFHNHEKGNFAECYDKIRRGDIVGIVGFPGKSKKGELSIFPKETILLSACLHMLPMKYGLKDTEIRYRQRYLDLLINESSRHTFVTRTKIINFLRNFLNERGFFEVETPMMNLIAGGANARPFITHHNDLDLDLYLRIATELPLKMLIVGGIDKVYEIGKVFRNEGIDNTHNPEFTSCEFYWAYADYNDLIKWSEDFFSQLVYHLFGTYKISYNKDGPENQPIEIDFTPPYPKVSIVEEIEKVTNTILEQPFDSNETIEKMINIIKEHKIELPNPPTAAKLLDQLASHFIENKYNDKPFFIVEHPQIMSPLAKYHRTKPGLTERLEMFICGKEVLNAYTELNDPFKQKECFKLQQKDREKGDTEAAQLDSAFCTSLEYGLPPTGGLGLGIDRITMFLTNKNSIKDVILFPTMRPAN

ClpP1P2: 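Protease assay of ClpP1P2, read by the AMC dye that it sets free. Target: ClpP1P2, Mycobacterium tuberculosis (UniProt P9WPC5 and UniProt P9WPC3). Tested at 50 µM. Higher reads as stronger inhibition, judged from the few compounds that gave an IC50. Most other retested compounds had strongly negative values. About 69,000 compounds were tested under these conditions; 0.015% (about 10) showed 50% or more at least once.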
MtTrpRS: 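Enzyme assay of tryptophanyl-tRNA synthetase; the read-out is not stated. Target: Tryptophan-tRNA ligase, Mycobacterium tuberculosis (UniProt P9WFT3). Concentration: 10 µM. Higher most likely means stronger inhibition; the record gives no direction and few retests gave an IC50. About 65,000 compounds were tested under these conditions; 0.098% (about 64) showed 50% or more at least once.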
Pks13 thioesterase: 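Enzyme assay of the thioesterase domain of polyketide synthase 13; the read-out is not stated. Target: Polyketide synthase Pks13, Mycobacterium tuberculosis (UniProt I6X8D2). Tested at 30 µM. The record gives no direction; the compounds picked for IC50 retests had high values, so higher reads as stronger inhibition. Size under these conditions: about 67,000 compounds, about 300 of them at 50% or above in at least one test.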
PfKRS1: 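Lysine-tRNA ligase, Plasmodium falciparum 3D7 (UniProt Q8IDJ8). Enzyme assay of the cytosolic lysyl-tRNA synthetase in 384-well plates, read by luminescence. Concentration: 30 µM. Higher reads as stronger inhibition, judged from the few compounds that gave an IC50. Size under these conditions: about 69,000 compounds, about 49 of them at 50% or above in at least one test.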

The filed quantity is “Percent Effect” (%). The record does not define 0% and 100%; most values in the screen are far below 50% and negative numbers occur (in some assays of this library far below -100). This is an unselected part of the compounds tested. A dash means the value is not listed here; it may have been measured.

| # | Compound | ClpP1P2 | MtTrpRS | Pks13 thioesterase | PfKRS1 |
|---|---|---|---|---|---|
| 1 | `Cc1nc2cc(=O)[nH]n2c(C)c1CNC(=O)c1cnn(C(C)(C)C)c1` | -0.6403% | -2.863% | -15.52% | 3.624% |
| 2 | `COc1ccc(/C=C/CN2CCN(c3ncccc3C(N)=O)CC2)cc1` | 7.441% | 3.709% | -5.268% | 1.626% |
| 3 | `CCC1CN(CC(=O)N2CCN(C(C)=O)CC2)CCN1CCOC` (stereo not drawn) | -15.8% | -3.739% | -4.931% | -0.0551% |
| 4 | `CC(NC(=O)N1CCN(c2ncccn2)CC1)c1ccc(C#N)cc1` (stereo not drawn) | 7.882% | -3.964% | -9.932% | 0.7242% |
| 5 | `CC(=O)Nc1nc(CN2CCn3c(nnc3C(C)C)C2)cs1` | -40.52% | -7.557% | -4.784% | 0.8036% |
| 6 | `O=C(NCc1ccco1)[C@@H]1CCO[C@@H]2CCN(c3ncccn3)C[C@@H]21` | 0.3434% | 3.591% | -0.3537% | -2.334% |
| 7 | `Cc1nc(CN(C)C2CCN(CC3CCCC3)C2)no1` (stereo not drawn) | -17.1% | -6.383% | 6.117% | 1.695% |
| 8 | `COCc1nc(C(=O)NS(=O)(=O)c2ccc(C)c(C)c2)cs1` | 5.037% | 1.452% | - | 3.345% |
| 9 | `O=c1c2cnc(N3CCCC3)nc2ccn1-c1cccc(F)c1` | 14.67% | 13.16% | 22.62% | -0.7018% |
| 10 | `CCc1ccc(O)c(C(=O)N2CCN(CC(=O)N(CC)CC)CC2)c1` | -4.551% | -2.418% | -7.556% | 6.052% |
| 11 | `Cc1nn(C)c(Cl)c1C1CCCN1C(=O)c1ccc(C(N)=O)cn1` (stereo not drawn) | -3.487% | 18.67% | -20.76% | -1.015% |
| 12 | `CCc1nnc2ccc(N3CCN(S(=O)(=O)c4ccc(C)s4)CC3)nn12` | 0.1551% | 1.188% | -4.104% | 3.213% |
| 13 | `COc1cc(N2C[C@@H]3COC[C@]3(COCc3ccccn3)C2)ncn1` | 10.66% | -2.827% | 7.427% | 5.641% |
| 14 | `c1ccc(-n2cc(CN3CCCCC3Cn3cncn3)nn2)cc1` (stereo not drawn) | -9.756% | -2.939% | -45.05% | -0.5853% |
| 15 | `O=C(NC1CCS(=O)(=O)C1)c1ccccc1SCc1cscn1` (stereo not drawn) | 9.164% | 0.273% | -12.86% | 10.41% |
| 16 | `COC(=O)c1cc(OCC2CCC2)cc(C(=O)N[C@H]2CCCC[C@@H]2O)c1` | -1.248% | 5.167% | -10.97% | 14.72% |
| 17 | `c1ccc2oc(CN3CCCC3Cn3cncn3)nc2c1` (stereo not drawn) | -5.842% | -3.762% | -0.02616% | 1.614% |
| 18 | `CN1CCN(Cc2cccnc2)C2(CCN(c3ncc(F)cn3)C2)C1=O` (stereo not drawn) | -1.847% | 2.568% | -5.86% | 6.544% |
| 19 | `O=C(NC1CCN(c2snc3ccccc23)CC1)C1CCC1` | 10.24% | -0.8772% | 6.173% | 8.105% |
| 20 | `COCC(=O)N1CCN(C)c2ncccc2C1` | -1.535% | 6.345% | - | 1.448% |
| 21 | `Cc1nnsc1C(=O)N1CCCC(c2nccn2Cc2cscn2)C1` (stereo not drawn) | 4.632% | 0.7971% | 4.998% | 1.042% |
| 22 | `COc1ccc(N2CCC(NS(=O)(=O)N(C)C(C)C)CC2)cc1` | -4.592% | 5.828% | 12.58% | 0.08946% |
| 23 | `Cc1cc(C)cc(CN2CCN(Cc3ccc4nonc4c3)CC2=O)c1` | -12.56% | 0.2174% | 16.3% | 5.724% |
| 24 | `Cc1ccc(CNc2ccccc2-n2ccc(C)n2)nc1` | -13.09% | 7.319% | 10.2% | 5.787% |
| 25 | `Cc1cnn(CC2CCCCN2Cc2nnsc2Cl)c1` (stereo not drawn) | -17.52% | -10.09% | -8.409% | 1.434% |
| 26 | `COc1cccc(NC(=O)Cn2cc(-c3ccccc3)ncc2=O)c1` | -4.885% | 0.4944% | -5.552% | 5.753% |
| 27 | `Cc1nn(C)c2nc(N(Cc3cnn(C)c3)C3CCCCC3)sc12` | 0.142% | -2.725% | -50.84% | 1.256% |
| 28 | `CCCS(=O)(=O)N1CCC(NC(=O)c2cc3ccccc3s2)CC1` | 5.148% | 2.534% | -15.42% | 4.392% |
| 29 | `c1cncc(-c2nnn3c2COCC(CNC2CCOCC2)C3)c1` (stereo not drawn) | 13.82% | -2.215% | -22.8% | 7.517% |
| 30 | `CCc1nnc2n1CCN(Cc1csc(-c3cnn(C)c3)n1)C2` | 13.01% | 1.706% | -6.074% | -0.4573% |
| 31 | `COC(=O)Cn1c(=O)nc2n1C(=O)N(c1ccc(Br)cc1)C2` | -8.849% | -0.2472% | -5.526% | 4.64% |
| 32 | `Cc1ccc(CN2CC[C@H]3[C@H](CC(Cn4cccn4)N3C)C2)s1` (stereo partly drawn) | 3.709% | 10.52% | -34.71% | 0.5954% |
| 33 | `COc1ccnc(N2CCN(C(=O)CN3CCCC3=O)CC2)n1` | 7.21% | -1.267% | - | 1.604% |
| 34 | `Cc1cc(C)n(CC2CCCCN2Cc2cscn2)n1` (stereo not drawn) | 16.55% | 5.708% | -14.38% | 9.409% |
| 35 | `NC(=O)N1CCCC1COC(=O)c1cc(F)ccc1F` (stereo not drawn) | -1.582% | 4.253% | -3.127% | 7.496% |
| 36 | `CCN(C)CC(C)Cn1cnc(-c2ccccc2)c1C` (stereo not drawn) | -19.46% | 3.25% | -18.77% | 3.248% |
| 37 | `COc1cccc(N2CCN(Cc3ccc4occc4c3)CC2=O)c1` | 1.994% | 2.494% | -2.52% | 5.338% |
| 38 | `COc1ccc(NC(=O)Cn2nc(C)c(C)cc2=O)cc1Cl` | -11.13% | 3.696% | -15.3% | 4.498% |
| 39 | `Cc1nc(C)n(CC2CN(Cc3cccc4c3OCCO4)CCO2)n1` (stereo not drawn) | -6.564% | -0.6823% | -9.205% | 4.069% |
| 40 | `COc1cccc2c1OCC(C(=O)NCCCn1nc(C)c(Cl)c1C)C2` (stereo not drawn) | -33.94% | 2.408% | -5.6% | 0.7574% |
| 41 | `Cc1ccc(C(=O)N2CCCC(Nc3ccc(F)cc3)C2)cc1` (stereo not drawn) | -14.6% | 1.377% | 5.502% | 1.262% |
| 42 | `CN(C)C(=O)c1cccnc1N1CCOC(c2ccc(Cl)cc2)C1` (stereo not drawn) | 6.513% | -2.252% | -21.91% | 9.376% |
| 43 | `NCc1cccc(-c2cccnc2C(=O)NCCN2CCOCC2)c1` | -12.25% | -2.888% | 12.49% | 3.448% |
| 44 | `CCOC(=O)CN1CC(c2nc(-c3ccsc3)no2)C1` | -15.4% | 1.025% | -7.07% | 3.105% |
| 45 | `Cc1cc(C(=O)N(C)C(C)CC(C)C)on1` (stereo not drawn) | -8.721% | -4.758% | -8.441% | 1.801% |
| 46 | `Cc1cccc(-c2noc([C@@H]3C[C@@H](O)CN3C)n2)c1` | 1.807% | -5.483% | 1.703% | 1.277% |
| 47 | `O=C(c1ccccn1)N1CCCC(c2cc(C(F)F)n3ncnc3n2)C1` (stereo not drawn) | 4.456% | - | 1.531% | -1.21% |
| 48 | `O=C(Cn1nc(-c2ccc(F)cc2)oc1=O)NCCc1ccccc1` | -25.31% | 1.82% | -14.39% | 0.5143% |
| 49 | `CCOC1Sc2nnc(C)n2N=C1c1ccc(Cl)cc1` (stereo not drawn) | -8.03% | 1.876% | -7.847% | -1.875% |
| 50 | `O=C(NS(=O)(=O)Cc1ccc(F)cc1)C1CCc2ccccc21` (stereo not drawn) | 6.313% | -5.636% | -12.55% | 7.667% |
| 51 | `CC(C)c1cc(CSCCC(=O)O)no1` | 2.073% | - | 21.68% | 5.702% |
| 52 | `Cc1nc(CN(C)C(=O)Nc2cccc(C)c2C)no1` | -3.748% | -0.6431% | -5.133% | 6.068% |
| 53 | `O=C(NCCCO)c1nnsc1-c1ccc(Cl)cc1` | -18.15% | 2.292% | -3.641% | 4.671% |
| 54 | `CN(C)CCCN(C)C1CCN(c2cccc(-c3cscn3)c2)CC1` | -7.845% | -6.137% | -24.31% | -0.604% |
| 55 | `COC(=O)C1CCN(C(=O)Cn2ccc(-c3ccccc3)n2)CC1` | 3.369% | 3.128% | 3.173% | 3.352% |
| 56 | `O=C(NCc1nncn1C1CC1)C1(c2ccc(F)cc2)CCCC1` | -8.74% | 2.511% | -24.98% | -1.639% |
| 57 | `CCCc1cc(C(=O)N(C)Cc2ccc(OC)c3ncccc23)n(C)n1` | -17.25% | 2.02% | -10.91% | 5.089% |
| 58 | `CN(C)C(=O)c1cccc(NC(=O)CN2CCCCC2C2OCCO2)c1` (stereo not drawn) | -14.42% | -4.701% | -8.337% | 6.256% |
| 59 | `Cc1c[nH]c(CN2CCN(C)C3(CCC(=O)N(CC4CC4)CC3)C2)n1` (stereo not drawn) | 2.267% | -4.714% | -14.25% | -1.161% |
| 60 | `COCCN1CCC(NCc2c(C(C)C)nn(C)c2N(C)C)CC1` | 9.553% | -3.062% | -2.699% | -3.717% |

Some entries from above, unchanged:

With CN(C)C(=O)c1cccnc1N1CCOC(c2ccc(Cl)cc2)C1 (stereo not drawn) the screen gave ClpP1P2: 6.513%; MtTrpRS: -2.252%; Pks13 thioesterase: -21.91%; PfKRS1: 9.376%.
With c1cncc(-c2nnn3c2COCC(CNC2CCOCC2)C3)c1 (stereo not drawn) the screen gave ClpP1P2: 13.82%; MtTrpRS: -2.215%; Pks13 thioesterase: -22.8%; PfKRS1: 7.517%.
With O=C(NC1CCS(=O)(=O)C1)c1ccccc1SCc1cscn1 (stereo not drawn) the screen gave ClpP1P2: 9.164%; MtTrpRS: 0.273%; Pks13 thioesterase: -12.86%; PfKRS1: 10.41%.
With COc1ccc(N2CCC(NS(=O)(=O)N(C)C(C)C)CC2)cc1 the screen gave ClpP1P2: -4.592%; MtTrpRS: 5.828%; Pks13 thioesterase: 12.58%; PfKRS1: 0.08946%.
With CN1CCN(Cc2cccnc2)C2(CCN(c3ncc(F)cn3)C2)C1=O (stereo not drawn) the screen gave ClpP1P2: -1.847%; MtTrpRS: 2.568%; Pks13 thioesterase: -5.86%; PfKRS1: 6.544%.

Data taken from ChEMBL document CHEMBL3988442, “University of Dundee, Small-Polar-MMV Screening Library” (2021).